The assay addresses UBE2N-V5-APEX2 (UniProt P61088). Put plainly: proximity labelling; doxycycline-inducible UBE2N-V5-APEX2; biotin phenol and hydrogen peroxide; biotinylated proteins pulled down and analysed by LC-MS/MS; compared with the DOX-untreated sample.

By UniProt entry, the sequences of proteins in these tests, tags left out.
UniProt P61088: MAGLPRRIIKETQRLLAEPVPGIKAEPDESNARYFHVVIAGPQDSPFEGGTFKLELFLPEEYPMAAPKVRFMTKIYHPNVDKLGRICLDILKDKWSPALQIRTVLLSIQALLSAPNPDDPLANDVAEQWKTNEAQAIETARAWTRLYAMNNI
UniProt Q16539: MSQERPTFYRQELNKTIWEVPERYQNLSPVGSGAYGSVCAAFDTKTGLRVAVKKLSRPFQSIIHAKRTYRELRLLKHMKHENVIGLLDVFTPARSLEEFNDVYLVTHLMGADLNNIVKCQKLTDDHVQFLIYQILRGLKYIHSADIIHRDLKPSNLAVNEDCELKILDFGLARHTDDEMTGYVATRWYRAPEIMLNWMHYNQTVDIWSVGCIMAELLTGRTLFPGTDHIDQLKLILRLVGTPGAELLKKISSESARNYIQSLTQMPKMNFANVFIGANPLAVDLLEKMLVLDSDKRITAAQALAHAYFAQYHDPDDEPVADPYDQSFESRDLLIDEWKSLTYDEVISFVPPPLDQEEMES
UniProt P19838: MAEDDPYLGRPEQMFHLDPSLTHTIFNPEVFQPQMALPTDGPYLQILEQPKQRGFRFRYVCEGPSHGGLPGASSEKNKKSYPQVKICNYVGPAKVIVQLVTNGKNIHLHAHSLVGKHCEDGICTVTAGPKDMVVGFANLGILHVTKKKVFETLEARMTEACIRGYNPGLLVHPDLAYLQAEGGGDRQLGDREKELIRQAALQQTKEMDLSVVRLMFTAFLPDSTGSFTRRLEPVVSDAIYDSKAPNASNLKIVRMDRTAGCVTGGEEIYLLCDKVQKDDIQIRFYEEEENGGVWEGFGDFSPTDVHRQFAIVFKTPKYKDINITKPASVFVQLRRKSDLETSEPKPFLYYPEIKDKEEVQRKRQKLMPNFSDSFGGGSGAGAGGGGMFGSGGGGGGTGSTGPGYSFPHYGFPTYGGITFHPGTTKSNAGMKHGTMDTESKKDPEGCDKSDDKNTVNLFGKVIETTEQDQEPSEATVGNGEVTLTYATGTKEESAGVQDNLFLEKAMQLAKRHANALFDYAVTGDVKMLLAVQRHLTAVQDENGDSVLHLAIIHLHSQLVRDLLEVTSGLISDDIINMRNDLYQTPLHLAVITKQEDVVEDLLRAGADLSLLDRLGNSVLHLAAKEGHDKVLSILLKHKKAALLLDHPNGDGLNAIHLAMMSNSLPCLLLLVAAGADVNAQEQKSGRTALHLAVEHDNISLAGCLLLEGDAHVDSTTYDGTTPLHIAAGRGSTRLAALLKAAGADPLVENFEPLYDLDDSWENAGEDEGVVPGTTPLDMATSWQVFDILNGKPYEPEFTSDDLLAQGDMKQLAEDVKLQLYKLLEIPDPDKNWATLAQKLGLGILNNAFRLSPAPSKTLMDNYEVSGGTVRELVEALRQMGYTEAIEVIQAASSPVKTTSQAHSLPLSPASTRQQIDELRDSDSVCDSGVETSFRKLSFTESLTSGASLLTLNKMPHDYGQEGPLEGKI
UniProt Q9Y6K9: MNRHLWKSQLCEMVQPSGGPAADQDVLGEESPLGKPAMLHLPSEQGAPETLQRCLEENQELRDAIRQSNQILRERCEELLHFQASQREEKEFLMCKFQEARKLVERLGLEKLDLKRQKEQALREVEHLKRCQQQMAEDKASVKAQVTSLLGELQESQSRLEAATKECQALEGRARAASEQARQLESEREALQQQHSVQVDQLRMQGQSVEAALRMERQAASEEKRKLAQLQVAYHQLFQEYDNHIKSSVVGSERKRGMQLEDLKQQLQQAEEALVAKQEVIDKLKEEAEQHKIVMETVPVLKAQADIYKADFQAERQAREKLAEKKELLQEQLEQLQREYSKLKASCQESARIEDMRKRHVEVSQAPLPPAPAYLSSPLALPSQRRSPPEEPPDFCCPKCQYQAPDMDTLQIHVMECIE

Here are results for three substances from PMC12077902.

No constants are given. Whether binding was seen depends on the method and setting. Binding seen in cells or lysates may run through a third protein. These calls come from enrichment with a bait or labelling near it, and not all partners need be listed.

MAPK14 (from UniProt Q16539 1-360): the binding entry is “binds”. Under NFKB1 (from UniProt P19838 1-968) stands “binds”; under IKBKG/IKKγ (from UniProt Q9Y6K9 1-419), “binds”.
